Laboratory results reported in publication PMC10460399 (Nature Communications, 2023).
No constants are given. Whether binding was seen depends on the method and setting. Some results given as binding are weak or reduced against the parent protein; the word gives no strength.

The chains behind the UniProt entries cited, without tags or fusion partners. Where a name states a change or a piece, a line headed by the entry shows the natural chain unless it says otherwise.
UniProt A1ZAW0: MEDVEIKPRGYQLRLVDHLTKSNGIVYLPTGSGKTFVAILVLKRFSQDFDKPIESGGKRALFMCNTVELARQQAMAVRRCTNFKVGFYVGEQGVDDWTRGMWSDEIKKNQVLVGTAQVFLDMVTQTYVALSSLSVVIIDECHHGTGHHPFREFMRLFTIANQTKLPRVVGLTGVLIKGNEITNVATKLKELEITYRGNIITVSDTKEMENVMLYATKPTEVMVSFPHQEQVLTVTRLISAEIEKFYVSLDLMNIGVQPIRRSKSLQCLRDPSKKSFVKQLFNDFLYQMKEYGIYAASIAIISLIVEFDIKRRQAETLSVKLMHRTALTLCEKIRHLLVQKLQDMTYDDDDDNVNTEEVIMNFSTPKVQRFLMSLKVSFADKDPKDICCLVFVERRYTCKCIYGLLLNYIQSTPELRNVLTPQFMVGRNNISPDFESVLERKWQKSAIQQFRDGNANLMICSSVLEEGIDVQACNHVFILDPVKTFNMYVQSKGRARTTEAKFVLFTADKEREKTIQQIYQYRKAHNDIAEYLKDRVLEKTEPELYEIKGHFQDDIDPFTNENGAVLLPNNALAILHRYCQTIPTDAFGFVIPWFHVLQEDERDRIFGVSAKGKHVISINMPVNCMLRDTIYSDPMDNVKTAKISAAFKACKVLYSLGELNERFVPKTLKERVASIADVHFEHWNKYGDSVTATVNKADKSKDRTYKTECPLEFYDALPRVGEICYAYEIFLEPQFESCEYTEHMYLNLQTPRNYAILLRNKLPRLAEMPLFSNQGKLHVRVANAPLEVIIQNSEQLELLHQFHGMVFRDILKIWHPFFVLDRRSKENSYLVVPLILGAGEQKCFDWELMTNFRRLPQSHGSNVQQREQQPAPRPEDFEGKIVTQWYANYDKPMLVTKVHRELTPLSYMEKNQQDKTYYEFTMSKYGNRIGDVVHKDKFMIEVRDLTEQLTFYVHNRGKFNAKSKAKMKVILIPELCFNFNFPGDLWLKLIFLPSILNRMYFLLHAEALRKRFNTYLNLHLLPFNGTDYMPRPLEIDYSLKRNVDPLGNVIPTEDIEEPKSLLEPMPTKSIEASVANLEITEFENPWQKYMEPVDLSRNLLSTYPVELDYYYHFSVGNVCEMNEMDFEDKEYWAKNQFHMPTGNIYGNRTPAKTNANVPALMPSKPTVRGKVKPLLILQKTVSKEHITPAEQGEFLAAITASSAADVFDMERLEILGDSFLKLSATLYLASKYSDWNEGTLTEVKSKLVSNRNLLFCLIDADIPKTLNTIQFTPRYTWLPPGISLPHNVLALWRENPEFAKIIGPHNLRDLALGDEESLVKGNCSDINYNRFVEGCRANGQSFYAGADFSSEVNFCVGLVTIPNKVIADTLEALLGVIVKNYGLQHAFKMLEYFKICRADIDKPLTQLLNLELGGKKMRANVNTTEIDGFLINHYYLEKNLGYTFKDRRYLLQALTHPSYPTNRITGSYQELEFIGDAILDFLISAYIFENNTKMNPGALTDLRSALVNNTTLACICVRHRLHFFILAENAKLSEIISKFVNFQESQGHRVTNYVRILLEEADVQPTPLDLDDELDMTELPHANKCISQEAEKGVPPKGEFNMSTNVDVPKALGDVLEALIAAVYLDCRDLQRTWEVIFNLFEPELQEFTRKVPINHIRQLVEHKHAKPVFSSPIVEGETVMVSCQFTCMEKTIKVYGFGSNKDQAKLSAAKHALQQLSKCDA

What was measured:
[1] = target: DmDcr-2, wild type, full length (Drosophila melanogaster) (UniProt A1ZAW0); experiment: co-purification (Ni-NTA, anion exchange, 2nd Ni-NTA, SEC); DmDcr-2 and R2D2 co-expressed in sf9 cells by baculovirus; lysate in 150 mM NaCl, 20 mM Tris-HCl pH 8.0, 10% glycerol, 20 mM imidazole; last step Superdex 200 10/300 Increase
[2] = target: DmDcr-2 mutant (D1217N/D1476N, DmDcr-2^DDNN) (Drosophila melanogaster) (UniProt A1ZAW0); experiment: cryo-EM structure; DmDcr-2^DDNN/R2D2/Loqs-PD complex with 19-bp dsRNA 1:1, 25 °C for 2 h, diluted to 1 uM in SEC buffer with 5 mM ATP and 5 mM MgCl2; both purified
[3] = target: DmDcr-2 mutant (D1217N/D1476N, DmDcr-2^DDNN) (Drosophila melanogaster) (UniProt A1ZAW0); experiment: cryo-EM structure; DmDcr-2^DDNN/R2D2/Loqs-PD complex with 50-bp dsRNA 1:1, 25 °C for 2 h, diluted to 1 uM in SEC buffer with 5 mM ATP and 5 mM MgCl2; both purified

Measured: binding

B1: R2D2, wild type, full length (protein, UniProt Q9VLW8 1-311)
chain: MDNKSAVSALQEFCARTQINLPTYSFIPGEDGGYVCKVELLEIEALGNGRSKRDAKHLAASNILRKIQLLPGIHGLMKDSTVGDLDEELTNLNRDMVKELRDYCVRREMPLPCIEVVQQSGTPSAPEFVACCSVASIVRYGKSDKKKDARQRAAIEMLALISSNSDNLRPDQMQVASTSKLKVVDMEESMEELEALRRKKFTTYWELKEAGSVDHTGMRLCDRHNYFKNFYPTLKKEAIEAINSDEYESSKDKAMDVMSSLKITPKISEVESSSLVPLLSVELNCAFDVVLMAKETDIYDHIIDYFRTMLI
binds: [1] | [2] | [3]
